Some of the results follow.
Columns and labels:
Experiment in all cases: log2 fold change, soluble protein after heating vs DMSO (PISA); higher = thermal stabilisation; K562 cells, 10 uM, 30 min; active = over 0.2 and 3.5 SD of the protein, either way, in both replicates (recomputed)
[1] = compound: CS(=O)(=O)c1ccc(-c2cnc(N)c(C(=O)Nc3ccccc3)n2)cc1
Method in brief: (§1)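 Values are thermal stability changes relative to control samples and are taken from duplicates. They are stated as log2 fold changes. Before quantification by TMTpro 16plex LC-MS/MS with equalised channel sums, K562 cells at 2×10^6 cells/mL were treated with 10 μM compound for 30 min, heated in aliquots for 3 min across 48°C-58°C, pooled, extracted in PBS with 0.5% NP-40 at 4°C, and centrifuged at 21,000xg for 90 min to give the soluble supernatant.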

Protein sequences, listed by entry. Tags and fused reporters are not part of them. Lines headed by an entry give the natural chain unless they say otherwise; changes in a name come on top.
UniProt O14656: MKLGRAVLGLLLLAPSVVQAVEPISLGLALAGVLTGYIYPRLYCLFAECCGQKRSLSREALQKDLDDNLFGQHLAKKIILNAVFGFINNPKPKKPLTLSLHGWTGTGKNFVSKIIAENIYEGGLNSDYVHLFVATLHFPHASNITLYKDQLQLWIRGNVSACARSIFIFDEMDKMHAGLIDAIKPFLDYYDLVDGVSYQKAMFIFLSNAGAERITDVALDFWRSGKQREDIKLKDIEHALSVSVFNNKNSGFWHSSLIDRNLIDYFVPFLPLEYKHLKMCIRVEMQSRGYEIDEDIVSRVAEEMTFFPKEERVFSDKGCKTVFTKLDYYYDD
UniProt Q8WW01: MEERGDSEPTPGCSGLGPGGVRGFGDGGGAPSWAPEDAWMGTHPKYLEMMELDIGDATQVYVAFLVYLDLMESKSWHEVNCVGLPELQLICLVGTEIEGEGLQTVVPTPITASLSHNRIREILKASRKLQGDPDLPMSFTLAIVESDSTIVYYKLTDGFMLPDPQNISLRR
UniProt Q9Y4A5, whole entry, looked up: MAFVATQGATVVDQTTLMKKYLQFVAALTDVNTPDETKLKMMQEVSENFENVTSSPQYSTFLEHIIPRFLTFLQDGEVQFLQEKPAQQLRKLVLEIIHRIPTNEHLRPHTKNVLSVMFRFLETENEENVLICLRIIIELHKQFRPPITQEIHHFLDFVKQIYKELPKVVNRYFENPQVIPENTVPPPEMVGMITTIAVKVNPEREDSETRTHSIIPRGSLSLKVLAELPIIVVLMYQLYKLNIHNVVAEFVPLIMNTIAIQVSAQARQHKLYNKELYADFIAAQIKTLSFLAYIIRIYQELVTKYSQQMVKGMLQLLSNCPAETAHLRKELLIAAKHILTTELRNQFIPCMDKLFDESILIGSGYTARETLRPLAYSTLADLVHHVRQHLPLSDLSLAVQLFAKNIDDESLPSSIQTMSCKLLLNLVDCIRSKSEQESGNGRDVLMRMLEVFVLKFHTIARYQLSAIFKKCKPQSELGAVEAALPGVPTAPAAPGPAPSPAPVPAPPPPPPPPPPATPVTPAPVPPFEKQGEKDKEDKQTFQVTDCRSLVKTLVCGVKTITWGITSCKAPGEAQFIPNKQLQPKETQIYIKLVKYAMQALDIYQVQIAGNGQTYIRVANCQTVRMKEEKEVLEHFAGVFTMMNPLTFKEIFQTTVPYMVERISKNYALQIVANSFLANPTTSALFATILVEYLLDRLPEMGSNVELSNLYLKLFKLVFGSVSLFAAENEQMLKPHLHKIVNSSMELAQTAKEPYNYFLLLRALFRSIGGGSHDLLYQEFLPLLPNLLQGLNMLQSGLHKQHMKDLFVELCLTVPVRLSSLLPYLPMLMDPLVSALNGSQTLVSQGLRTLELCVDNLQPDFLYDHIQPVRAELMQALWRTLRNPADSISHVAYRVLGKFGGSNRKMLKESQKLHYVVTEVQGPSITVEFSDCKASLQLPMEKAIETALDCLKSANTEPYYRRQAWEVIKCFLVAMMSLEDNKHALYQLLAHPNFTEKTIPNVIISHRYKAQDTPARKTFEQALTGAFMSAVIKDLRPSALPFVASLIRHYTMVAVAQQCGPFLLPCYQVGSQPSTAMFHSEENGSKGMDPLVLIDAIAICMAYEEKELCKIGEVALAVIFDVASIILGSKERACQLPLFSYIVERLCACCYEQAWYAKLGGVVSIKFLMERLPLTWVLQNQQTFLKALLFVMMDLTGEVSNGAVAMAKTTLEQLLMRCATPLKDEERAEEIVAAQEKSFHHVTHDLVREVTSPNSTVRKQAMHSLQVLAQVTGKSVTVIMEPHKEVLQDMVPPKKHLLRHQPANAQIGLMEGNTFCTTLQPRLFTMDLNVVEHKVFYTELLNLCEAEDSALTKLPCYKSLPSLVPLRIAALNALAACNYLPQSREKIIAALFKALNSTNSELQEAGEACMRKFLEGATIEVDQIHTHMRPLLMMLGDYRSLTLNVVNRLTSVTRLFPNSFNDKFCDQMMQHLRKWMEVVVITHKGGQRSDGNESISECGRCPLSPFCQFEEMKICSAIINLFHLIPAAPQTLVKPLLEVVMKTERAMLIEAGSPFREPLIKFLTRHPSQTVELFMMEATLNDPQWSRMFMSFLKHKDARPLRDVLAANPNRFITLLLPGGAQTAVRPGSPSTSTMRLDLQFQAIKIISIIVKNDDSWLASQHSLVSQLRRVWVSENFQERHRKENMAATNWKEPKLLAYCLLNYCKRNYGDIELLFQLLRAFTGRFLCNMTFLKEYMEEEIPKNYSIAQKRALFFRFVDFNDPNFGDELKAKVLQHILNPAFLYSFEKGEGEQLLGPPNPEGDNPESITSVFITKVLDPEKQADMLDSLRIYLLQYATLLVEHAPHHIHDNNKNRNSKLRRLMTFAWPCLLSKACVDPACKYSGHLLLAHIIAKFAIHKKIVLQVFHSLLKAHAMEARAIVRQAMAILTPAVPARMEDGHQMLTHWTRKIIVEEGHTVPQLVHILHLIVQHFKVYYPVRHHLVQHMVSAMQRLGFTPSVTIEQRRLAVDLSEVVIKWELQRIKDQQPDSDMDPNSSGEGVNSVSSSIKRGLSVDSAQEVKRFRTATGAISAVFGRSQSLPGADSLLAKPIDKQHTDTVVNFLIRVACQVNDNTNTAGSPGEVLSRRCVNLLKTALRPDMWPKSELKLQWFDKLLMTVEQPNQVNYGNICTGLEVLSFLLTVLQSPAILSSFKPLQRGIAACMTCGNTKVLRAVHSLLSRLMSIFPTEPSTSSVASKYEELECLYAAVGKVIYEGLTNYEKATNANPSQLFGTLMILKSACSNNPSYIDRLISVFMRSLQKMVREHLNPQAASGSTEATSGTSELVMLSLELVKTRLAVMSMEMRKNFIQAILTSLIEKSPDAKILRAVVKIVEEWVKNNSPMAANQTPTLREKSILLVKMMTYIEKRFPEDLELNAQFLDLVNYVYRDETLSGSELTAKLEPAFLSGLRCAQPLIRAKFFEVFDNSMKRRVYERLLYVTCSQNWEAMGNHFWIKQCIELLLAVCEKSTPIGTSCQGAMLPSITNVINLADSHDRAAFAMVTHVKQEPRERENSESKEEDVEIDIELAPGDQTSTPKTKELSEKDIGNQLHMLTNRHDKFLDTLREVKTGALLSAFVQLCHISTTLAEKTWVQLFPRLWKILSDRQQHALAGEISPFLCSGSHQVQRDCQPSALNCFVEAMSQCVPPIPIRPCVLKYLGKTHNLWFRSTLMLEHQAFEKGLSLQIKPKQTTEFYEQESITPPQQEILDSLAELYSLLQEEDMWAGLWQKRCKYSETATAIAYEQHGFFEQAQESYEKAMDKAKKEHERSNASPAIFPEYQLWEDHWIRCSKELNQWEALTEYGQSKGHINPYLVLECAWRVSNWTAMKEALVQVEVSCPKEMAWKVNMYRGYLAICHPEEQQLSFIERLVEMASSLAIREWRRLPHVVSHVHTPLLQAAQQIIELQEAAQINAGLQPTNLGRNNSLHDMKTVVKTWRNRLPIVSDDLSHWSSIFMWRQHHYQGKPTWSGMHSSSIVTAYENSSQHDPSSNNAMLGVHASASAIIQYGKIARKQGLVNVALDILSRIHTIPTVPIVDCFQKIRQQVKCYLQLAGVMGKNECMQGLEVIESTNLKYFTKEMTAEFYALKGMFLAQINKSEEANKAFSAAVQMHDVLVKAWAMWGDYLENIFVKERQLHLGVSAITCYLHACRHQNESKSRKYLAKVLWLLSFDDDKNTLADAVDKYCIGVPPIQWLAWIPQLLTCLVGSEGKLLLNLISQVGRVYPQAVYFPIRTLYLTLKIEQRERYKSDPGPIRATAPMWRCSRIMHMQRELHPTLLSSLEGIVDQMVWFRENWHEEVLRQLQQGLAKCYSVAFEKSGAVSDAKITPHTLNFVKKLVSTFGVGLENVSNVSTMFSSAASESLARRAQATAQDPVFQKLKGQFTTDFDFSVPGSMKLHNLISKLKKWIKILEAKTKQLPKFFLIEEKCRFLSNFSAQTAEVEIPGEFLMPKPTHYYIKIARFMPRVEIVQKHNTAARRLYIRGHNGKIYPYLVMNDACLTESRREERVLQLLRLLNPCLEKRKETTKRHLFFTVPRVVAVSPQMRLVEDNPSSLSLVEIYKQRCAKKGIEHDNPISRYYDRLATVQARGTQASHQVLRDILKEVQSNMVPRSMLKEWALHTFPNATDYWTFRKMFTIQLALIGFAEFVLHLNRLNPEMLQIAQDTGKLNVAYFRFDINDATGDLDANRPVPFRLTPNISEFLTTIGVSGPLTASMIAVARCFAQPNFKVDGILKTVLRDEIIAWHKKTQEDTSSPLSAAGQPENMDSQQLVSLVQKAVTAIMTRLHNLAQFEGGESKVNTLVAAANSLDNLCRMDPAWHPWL
UniProt Q5JTV8: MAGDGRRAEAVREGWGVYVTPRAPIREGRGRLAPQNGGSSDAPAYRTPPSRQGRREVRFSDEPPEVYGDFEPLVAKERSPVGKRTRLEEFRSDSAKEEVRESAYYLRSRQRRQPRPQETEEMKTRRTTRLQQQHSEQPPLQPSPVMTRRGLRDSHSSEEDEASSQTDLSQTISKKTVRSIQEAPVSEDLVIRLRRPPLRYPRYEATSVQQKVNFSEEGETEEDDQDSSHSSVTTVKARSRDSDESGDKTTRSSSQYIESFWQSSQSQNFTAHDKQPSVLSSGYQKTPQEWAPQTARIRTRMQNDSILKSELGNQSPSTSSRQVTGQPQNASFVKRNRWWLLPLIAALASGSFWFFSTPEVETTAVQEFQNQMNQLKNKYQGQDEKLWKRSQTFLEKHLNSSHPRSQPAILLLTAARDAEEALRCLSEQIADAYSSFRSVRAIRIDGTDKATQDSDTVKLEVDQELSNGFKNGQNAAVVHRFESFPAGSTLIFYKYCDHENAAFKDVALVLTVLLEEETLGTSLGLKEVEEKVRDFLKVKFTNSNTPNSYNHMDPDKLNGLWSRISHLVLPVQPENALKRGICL
UniProt Q8NCE0: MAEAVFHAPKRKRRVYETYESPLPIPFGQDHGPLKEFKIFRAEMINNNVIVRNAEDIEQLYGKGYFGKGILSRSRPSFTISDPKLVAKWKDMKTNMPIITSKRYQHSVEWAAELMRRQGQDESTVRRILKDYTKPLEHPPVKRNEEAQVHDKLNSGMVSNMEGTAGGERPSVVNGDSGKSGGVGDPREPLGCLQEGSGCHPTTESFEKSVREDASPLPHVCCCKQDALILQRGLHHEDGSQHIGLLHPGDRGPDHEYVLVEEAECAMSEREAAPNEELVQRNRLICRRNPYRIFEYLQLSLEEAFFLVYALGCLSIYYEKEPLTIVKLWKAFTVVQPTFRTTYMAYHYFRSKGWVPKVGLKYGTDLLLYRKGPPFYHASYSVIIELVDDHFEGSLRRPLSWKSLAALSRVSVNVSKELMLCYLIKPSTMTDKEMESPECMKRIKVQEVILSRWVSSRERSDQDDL
UniProt O00635: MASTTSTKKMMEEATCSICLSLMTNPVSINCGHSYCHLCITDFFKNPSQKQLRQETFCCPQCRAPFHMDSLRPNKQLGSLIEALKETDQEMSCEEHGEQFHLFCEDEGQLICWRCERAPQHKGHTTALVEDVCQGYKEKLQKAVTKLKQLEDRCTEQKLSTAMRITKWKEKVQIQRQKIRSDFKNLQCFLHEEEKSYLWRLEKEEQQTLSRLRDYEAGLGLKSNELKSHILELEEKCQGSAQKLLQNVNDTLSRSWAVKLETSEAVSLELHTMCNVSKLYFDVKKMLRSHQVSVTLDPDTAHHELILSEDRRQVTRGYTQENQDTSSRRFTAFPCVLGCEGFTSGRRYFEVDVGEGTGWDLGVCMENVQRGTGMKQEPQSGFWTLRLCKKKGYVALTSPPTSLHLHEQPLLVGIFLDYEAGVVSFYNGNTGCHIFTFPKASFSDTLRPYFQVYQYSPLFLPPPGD
UniProt Q86SZ2: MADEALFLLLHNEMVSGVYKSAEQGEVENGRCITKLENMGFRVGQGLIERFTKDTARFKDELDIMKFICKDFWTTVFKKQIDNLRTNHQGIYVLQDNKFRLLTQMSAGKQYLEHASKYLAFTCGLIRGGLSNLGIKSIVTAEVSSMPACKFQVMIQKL
UniProt Q15388, whole entry, looked up: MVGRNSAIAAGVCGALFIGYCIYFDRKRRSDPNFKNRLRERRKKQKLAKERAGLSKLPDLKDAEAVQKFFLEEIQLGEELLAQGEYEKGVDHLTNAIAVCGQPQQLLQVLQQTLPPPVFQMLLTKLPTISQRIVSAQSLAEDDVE
UniProt Q7L0Y3: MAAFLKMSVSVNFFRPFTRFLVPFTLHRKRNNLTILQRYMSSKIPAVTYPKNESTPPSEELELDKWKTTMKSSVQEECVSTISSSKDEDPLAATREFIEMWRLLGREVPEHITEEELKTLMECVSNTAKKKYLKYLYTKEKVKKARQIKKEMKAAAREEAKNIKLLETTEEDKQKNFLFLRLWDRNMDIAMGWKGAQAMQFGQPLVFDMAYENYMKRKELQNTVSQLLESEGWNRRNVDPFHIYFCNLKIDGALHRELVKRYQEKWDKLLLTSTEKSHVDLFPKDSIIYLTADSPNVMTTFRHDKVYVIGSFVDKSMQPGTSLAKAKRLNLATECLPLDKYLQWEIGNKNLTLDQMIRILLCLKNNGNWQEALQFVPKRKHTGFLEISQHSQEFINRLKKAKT

crizotinib = compound: C[C@@H](Oc1cc(-c2cnn(C3CCNCC3)c2)cnc1N)c1c(Cl)ccc(F)c1Cl [crizotinib]
Method in brief: as §1

[2] = compound: C[C@@H]1COCCN1C2=NC(=NC(=C2)C3(CC3)S(=O)(=O)C)C4=C5C=CNC5=CC=C4
Method in brief: as §1

[3] = compound: C[C@H](C1=CC=C(C=C1)C(=O)NC2=C3C=CNC3=NC=C2)N
Method in brief: as §1

duvelisib = compound: C[C@H](Nc1ncnc2nc[nH]c12)c1cc2cccc(Cl)c2c(=O)n1-c1ccccc1 [duvelisib]
Method in brief: as §1

gandotinib = compound: Cc1cc(Nc2cc(CN3CCOCC3)c3nc(C)c(Cc4ccc(Cl)cc4F)n3n2)n[nH]1 [gandotinib]
Method in brief: as §1

tozasertib = compound: Cc1cc(Nc2cc(N3CCN(C)CC3)nc(Sc3ccc(NC(=O)C4CC4)cc3)n2)n[nH]1 [tozasertib]
Method in brief: as §1

[4] = compound: Cc1cc(SCc2sc(-c3ccc(C(F)(F)F)cc3)nc2C)ccc1OCC(=O)O
Method in brief: as §1

doramapimod = compound: Cc1ccc(-n2nc(C(C)(C)C)cc2NC(=O)Nc2ccc(OCCN3CCOCC3)c3ccccc23)cc1 [doramapimod]
Method in brief: as §1

ispinesib = compound: Cc1ccc(C(=O)N(CCCN)[C@@H](c2nc3cc(Cl)ccc3c(=O)n2Cc2ccccc2)C(C)C)cc1 [ispinesib]
Method in brief: as §1

bafetinib = compound: Cc1ccc(NC(=O)c2ccc(CN3CC[C@H](N(C)C)C3)c(C(F)(F)F)c2)cc1Nc1nccc(-c2cncnc2)n1 [bafetinib]
Method in brief: as §1

[5] = compound: Cc1cccc(CC(=O)N2CCc3c2ccc(-c2cn(C)c4ncnc(N)c24)c3F)n1
Method in brief: as §1

nilotinib = compound: Cc1cn(-c2cc(NC(=O)c3ccc(C)c(Nc4nccc(-c5cccnc5)n4)c3)cc(C(F)(F)F)c2)cn1 [nilotinib]
Method in brief: as §1

[6] = compound: Cc1nc(Nc2n[nH]c3c2CN(C(=O)N[C@H](CN(C)C)c2ccccc2)C3(C)C)c2sccc2n1
Method in brief: as §1

dasatinib = compound: Cc1nc(Nc2ncc(C(=O)Nc3c(C)cccc3Cl)s2)cc(N2CCN(CCO)CC2)n1 [dasatinib]
Method in brief: as §1

[7] = compound: Cc1ncc(-c2ccnc(Nc3ccc(S(C)(=O)=O)cc3)n2)n1C(C)C
Method in brief: as §1

[8] = compound: Cn1cc(-c2ccc3c(c2)CCN3C(=O)Cc2cccc(C(F)(F)F)c2)c2c(N)ncnc21
Method in brief: as §1

[9] = compound: Cn1cc(-c2ccc3nnc(C(F)(F)c4ccc5ncccc5c4)n3n2)cn1
Method in brief: as §1

tipifarnib = compound: Cn1cncc1[C@@](N)(c1ccc(Cl)cc1)c1ccc2c(c1)c(-c1cccc(Cl)c1)cc(=O)n2C [tipifarnib]
Method in brief: as §1

mubritinib = compound: FC(F)(F)c1ccc(/C=C/c2nc(COc3ccc(CCCCn4ccnn4)cc3)co2)cc1 [mubritinib]
Method in brief: as §1

| Target | log2 fold change [1] | log2 fold change (crizotinib) | log2 fold change [2] | log2 fold change [3] | log2 fold change (duvelisib) | log2 fold change (gandotinib) | log2 fold change (tozasertib) | log2 fold change [4] | log2 fold change (doramapimod) | log2 fold change (ispinesib) | log2 fold change (bafetinib) | log2 fold change [5] | log2 fold change (nilotinib) | log2 fold change [6] | log2 fold change (dasatinib) | log2 fold change [7] | log2 fold change [8] | log2 fold change [9] | log2 fold change (tipifarnib) | log2 fold change (mubritinib) |
| --- | --- | --- | --- | --- | --- | --- | --- | --- | --- | --- | --- | --- | --- | --- | --- | --- | --- | --- | --- | --- |
| TOR1A (UniProt O14656) | inactive: -0.009 | inactive: 0.049 | inactive: 0.042 | inactive: -0.015 | inactive: 0.014 | inactive: -0.017 | inactive: -0.026 | inactive: -0.017 | inactive: -0.024 | inactive: 0.011 | inactive: -0.035 | inactive: -0.029 | inactive: -0.048 | inactive: 0.001 | inactive: -0.005 | inactive: -0.006 | inactive: 0.046 | inactive: -0.01 | inactive: 0.023 | inactive: 0.01 |
| TRIP6 (UniProt Q15654) | inactive: -0.001 | inactive: 0.067 | inactive: 0.058 | inactive: -0.057 | inactive: 0.002 | inactive: 0.046 | inactive: -0.002 | inactive: -0.011 | inactive: -0.029 | inactive: 0.037 | inactive: -0.019 | inactive: 0.007 | inactive: 0.037 | inactive: -0.035 | inactive: 0.037 | inactive: 0.004 | inactive: 0.001 | inactive: -0.027 | inactive: -0.005 | inactive: 0.008 |
| TRAF6 (UniProt Q9Y4K3) | inactive: 0.002 | inactive: 0.013 | inactive: -0.024 | inactive: -0.026 | inactive: -0.038 | inactive: -0.08 | inactive: -0.021 | inactive: 0.047 | inactive: 0.033 | inactive: 0.012 | inactive: -0.028 | inactive: 0.04 | inactive: -0.03 | inactive: -0.013 | inactive: -0.004 | inactive: 0.032 | inactive: 0.006 | inactive: -0.16 | inactive: 0.015 | inactive: 0.037 |
| TSEN15 (UniProt Q8WW01) | inactive: 0.1 | inactive: 0.005 | inactive: -0.009 | inactive: -0.059 | inactive: 0.072 | inactive: 0.025 | inactive: 0.023 | inactive: 0.067 | inactive: 0.097 | inactive: -0.02 | inactive: -0.002 | inactive: 0.025 | inactive: 0.036 | inactive: -0.029 | inactive: 0.05 | inactive: -0.015 | inactive: 0.136 | inactive: 0.113 | inactive: 0.053 | inactive: 0.012 |
| TRAPPC3 (UniProt O43617) | inactive: -0.003 | inactive: 0.002 | inactive: 0.074 | inactive: -0.006 | – | inactive: -0.048 | – | inactive: 0.017 | inactive: -0.008 | inactive: -0.023 | inactive: -0.033 | inactive: 0.003 | inactive: -0.007 | inactive: -0.023 | inactive: -0.021 | inactive: -0.001 | inactive: 0.025 | inactive: 0.041 | inactive: -0.047 | inactive: 0.035 |
| TRRAP (UniProt Q9Y4A5) | inactive: -0.007 | inactive: 0.018 | inactive: -0.009 | inactive: -0.02 | inactive: 0.021 | inactive: -0.021 | inactive: -0.017 | inactive: -0.031 | inactive: 0.015 | inactive: 0.002 | inactive: -0.05 | inactive: 0.02 | inactive: 0 | inactive: 0.02 | inactive: 0.03 | inactive: -0.041 | inactive: -0.002 | inactive: 0.006 | inactive: 0.002 | inactive: 0.03 |
| TOR1AIP1 (UniProt Q5JTV8) | inactive: 0.063 | inactive: 0.017 | inactive: -0.071 | inactive: -0.004 | inactive: 0.104 | inactive: 0.077 | – | inactive: -0.028 | inactive: -0.138 | inactive: -0.082 | inactive: 0.011 | inactive: -0.024 | inactive: 0.021 | inactive: 0.078 | inactive: -0.008 | inactive: -0.182 | inactive: 0.071 | inactive: 0.104 | inactive: -0.048 | inactive: -0.014 |
| TRAPPC8 (UniProt Q9Y2L5) | inactive: 0.036 | inactive: -0.033 | inactive: -0.008 | inactive: 0.032 | – | inactive: -0.056 | – | inactive: 0.117 | inactive: -0.012 | inactive: -0.138 | inactive: -0.037 | inactive: 0.044 | inactive: -0.055 | inactive: -0.04 | inactive: -0.133 | inactive: 0.059 | inactive: 0 | inactive: 0.004 | inactive: -0.013 | inactive: 0.045 |
| TNFRSF8 (UniProt P28908) | inactive: 0.051 | inactive: 0.15 | inactive: 0.009 | inactive: -0.073 | – | inactive: 0.012 | – | inactive: -0.063 | inactive: -0.011 | inactive: 0.029 | inactive: 0.01 | inactive: -0.089 | inactive: 0.074 | inactive: -0.049 | inactive: 0.032 | inactive: 0.043 | inactive: 0.014 | inactive: 0.032 | inactive: 0.042 | inactive: 0.069 |
| TNPO3 (UniProt Q9Y5L0) | inactive: -0.028 | inactive: -0.151 | inactive: 0.025 | inactive: -0.124 | – | inactive: -0.143 | – | inactive: 0.046 | inactive: -0.046 | inactive: 0.008 | inactive: -0.057 | inactive: 0.041 | inactive: -0.052 | inactive: -0.123 | inactive: -0.103 | inactive: -0.028 | inactive: -0.001 | inactive: -0.014 | inactive: -0.121 | inactive: 0.061 |
| TP53BP1 isoform 2 (UniProt Q12888) | inactive: 0.025 | inactive: 0.076 | inactive: -0.001 | inactive: 0.018 | – | inactive: -0.053 | – | inactive: 0.066 | inactive: 0.036 | inactive: 0.002 | inactive: 0.004 | inactive: 0.008 | inactive: -0.001 | inactive: -0.011 | inactive: -0.009 | inactive: -0.027 | inactive: -0.064 | inactive: -0.014 | inactive: 0.016 | inactive: -0.002 |
| TSEN2 (UniProt Q8NCE0) | inactive: -0.198 | inactive: 0.052 | inactive: 0.014 | inactive: 0 | – | inactive: -0.127 | – | inactive: 0.056 | inactive: -0.057 | inactive: -0.074 | inactive: 0.008 | inactive: 0.032 | inactive: -0.05 | inactive: -0.112 | inactive: -0.132 | inactive: -0.034 | inactive: 0.05 | inactive: -0.013 | inactive: -0.005 | inactive: -0.16 |
| TRIM38 (UniProt O00635) | inactive: -0.211 | inactive: 0.142 | inactive: 0.026 | inactive: 0.225 | inactive: 0.123 | inactive: 0.024 | – | inactive: 0.046 | inactive: -0.056 | – | inactive: -0.207 | inactive: -0.183 | inactive: -0.144 | inactive: -0.001 | inactive: 0.102 | inactive: -0.091 | inactive: 0.028 | – | inactive: -0.096 | inactive: 0.123 |
| TRAPPC6B (UniProt Q86SZ2) | inactive: -0.008 | inactive: 0.024 | inactive: 0.111 | inactive: -0.069 | – | inactive: -0.045 | – | inactive: -0.014 | inactive: 0.025 | inactive: 0.014 | inactive: -0.005 | inactive: -0.024 | inactive: -0.008 | inactive: -0.027 | inactive: -0.042 | inactive: 0.021 | inactive: 0.024 | inactive: 0.04 | inactive: -0.028 | inactive: 0.045 |
| TOMM20 (UniProt Q15388) | inactive: -0.068 | inactive: -0.019 | inactive: 0.058 | inactive: -0.06 | – | inactive: 0.116 | – | inactive: -0.062 | inactive: -0.025 | active: -0.358 | inactive: -0.194 | inactive: -0.035 | inactive: -0.002 | inactive: -0.031 | inactive: 0.039 | inactive: 0.01 | inactive: 0.003 | inactive: 0.006 | inactive: -0.095 | inactive: 0.017 |
| TRAPPC13 isoform 5 (UniProt A5PLN9) | inactive: -0.037 | inactive: -0.054 | inactive: 0.067 | inactive: 0.009 | – | inactive: -0.007 | – | inactive: 0.087 | inactive: 0.047 | inactive: 0.032 | inactive: 0.11 | inactive: 0.149 | inactive: -0.019 | inactive: 0 | active: -0.346 | inactive: -0.056 | inactive: 0.002 | inactive: -0.112 | inactive: -0.011 | inactive: 0.057 |
| TRMT10C (UniProt Q7L0Y3) | inactive: 0.045 | inactive: 0.03 | inactive: 0.109 | inactive: -0.013 | – | inactive: -0.072 | – | inactive: 0.069 | inactive: -0.008 | inactive: 0.017 | inactive: -0.044 | inactive: 0.107 | inactive: -0.043 | inactive: -0.066 | inactive: -0.181 | inactive: 0.012 | inactive: 0.046 | inactive: 0.038 | inactive: -0.037 | inactive: 0.153 |

Whole records as entered above. Order of values: log2 fold change [1] | log2 fold change (crizotinib) | log2 fold change [2] | log2 fold change [3] | log2 fold change (duvelisib) | log2 fold change (gandotinib) | log2 fold change (tozasertib) | log2 fold change [4] | log2 fold change (doramapimod) | log2 fold change (ispinesib) | log2 fold change (bafetinib) | log2 fold change [5] | log2 fold change (nilotinib) | log2 fold change [6] | log2 fold change (dasatinib) | log2 fold change [7] | log2 fold change [8] | log2 fold change [9] | log2 fold change (tipifarnib) | log2 fold change (mubritinib)
TRIP6 (UniProt Q15654) reads inactive: -0.001 | inactive: 0.067 | inactive: 0.058 | inactive: -0.057 | inactive: 0.002 | inactive: 0.046 | inactive: -0.002 | inactive: -0.011 | inactive: -0.029 | inactive: 0.037 | inactive: -0.019 | inactive: 0.007 | inactive: 0.037 | inactive: -0.035 | inactive: 0.037 | inactive: 0.004 | inactive: 0.001 | inactive: -0.027 | inactive: -0.005 | inactive: 0.008
TRRAP (UniProt Q9Y4A5) reads inactive: -0.007 | inactive: 0.018 | inactive: -0.009 | inactive: -0.02 | inactive: 0.021 | inactive: -0.021 | inactive: -0.017 | inactive: -0.031 | inactive: 0.015 | inactive: 0.002 | inactive: -0.05 | inactive: 0.02 | inactive: 0 | inactive: 0.02 | inactive: 0.03 | inactive: -0.041 | inactive: -0.002 | inactive: 0.006 | inactive: 0.002 | inactive: 0.03
